Some entries repeat one wording, which the source may state once for all of them.
Assays:
Ubi [1] = experiment: MS-compatibility: direct infusion ESI-MS of Ubi with 0.1% surfactant (7 T LTQ/FT-ICR); design: species or system bovine; settings: 80% isopropanol, 14.9% water, 5% formic acid, no desalting, Azo after UV, MaSDeS after acid degradation (FIG. 2d)
Ubi [2] = experiment: MS compatibility comparison to common surfactants: Ubi with 0.1% surfactant (12 T FTICR); design: species or system bovine; settings: cleavable surfactants degraded first (FIG. 17)
cardiac tissue lysate = experiment: LC-MS compatibility comparison using cardiac tissue lysate with 0.1% surfactant; design: species or system swine; settings: buffer exchanged (FIG. 18)
cardiac tissue proteins = experiment: Azo-aided top-down proteomics of cardiac tissue extract by RPLC-MS and RPLC-MS/MS; design: species or system swine
[3] = system: myoglobin, bovine serum albumin; experiment: Azo-aided trypsin digestion of standard proteins

## 4-hexylphenylazosulfonate
Ubi [1]
  MS signal suppression of Ubi: minimal signal suppression
Ubi [2]
  MS signal suppression of intact Ubi: minimal MS protein signal suppression
Cardiac tissue lysate
  top-down LC-MS compatibility / signal suppression: great top-down MS-compatibility
Cardiac tissue proteins; 0.5% Azo extraction, combination of three LC-MS runs
  total proteoforms detected based on accurate mass: 2836
Cardiac tissue proteins; 0.5% Azo extraction, one-dimensional RPLC-MS/MS, representing 171 proteins
  proteoforms identified by online RPLC-MS/MS: 388
Cardiac tissue proteins; swine heart tissue lysate after HEPES depletion, RPLC-MS/MS
  unique protein masses not present without surfactant: 663
[3]; 0.1% Azo, 1 h trypsin digest, infused without clean-up
  sequence coverage of myoglobin by peptide mass fingerprinting: 89%
[3]; Azo (0.1%), trypsin, sample without Azo remained intact
  time for protein digest: < 0.5 h

## CCCCCCCCCCCCO[C@@H]1O[C@H](CO)[C@@H](O[C@H]2O[C@H](CO)[C@@H](O)[C@H](O)[C@H]2O)[C@H](O)[C@H]1O [DDM, n-dodecyl β-D-maltoside]
Ubi [1]
  MS signal suppression of Ubi: minimal signal suppression
Ubi [2]
  MS signal suppression of intact Ubi: minimal MS protein signal suppression
Cardiac tissue lysate
  top-down LC-MS compatibility / signal suppression: great top-down MS-compatibility

## C[C@@H]1CC[C@@]2(OC1)O[C@H]1[C@@H](O)[C@H]3[C@@H]4CC[C@H]5C[C@@H](O[C@@H]6O[C@H](CO)[C@H](O[C@@H]7O[C@H](CO)[C@@H](O)[C@H](O[C@@H]8OC[C@@H](O)[C@H](O)[C@H]8O)[C@H]7O[C@@H]7O[C@H](CO)[C@H](O)[C@H](O[C@@H]8O[C@H](CO)[C@@H](O)[C@H](O)[C@H]8O)[C@H]7O)[C@H](O)[C@H]6O)[C@H](O)C[C@]5(C)[C@H]4CC[C@]3(C)[C@H]1[C@@H]2C [DGT, digitonin]
Ubi [2]
  MS signal suppression of intact Ubi: minimal MS protein signal suppression
Cardiac tissue lysate
  top-down LC-MS compatibility / signal suppression: to a lesser extent

## CCCCCCCCO[C@@H]1O[C@H](CO)[C@@H](O)[C@H](O)[C@H]1O [OG, Octyl β-D-glucopyranoside]
Ubi [2]
  MS signal suppression of intact Ubi: minimal MS protein signal suppression
Cardiac tissue lysate
  top-down LC-MS compatibility / signal suppression: great top-down MS-compatibility

## CCCCCCCCCCC(OC(=O)NCCCS(=O)(=O)[O-])c1ccco1.[Na+] (stereo not shown) [PM]
Ubi [2]
  MS signal suppression of intact Ubi: significantly suppressed
Cardiac tissue lysate
  top-down LC-MS compatibility / signal suppression: significant signal suppression

## CCCCCCCCCCCC1(C)OCC(COCCCS(=O)(=O)[O-])O1.[Na+] (stereo not shown) [RG]
Ubi [2]
  MS signal suppression of intact Ubi: significantly suppressed
Cardiac tissue lysate
  top-down LC-MS compatibility / signal suppression: significant signal suppression

## CCCCCCCCCCCCOS(=O)(=O)[O-].[Na+] [SDS, sodium dodecyl sulfate]
Ubi [1]
  MS signal suppression of Ubi: completely suppressed
Ubi [2]
  MS signal suppression of intact Ubi: dramatically suppressed
Cardiac tissue lysate
  top-down LC-MS compatibility / signal suppression: significant signal suppression

From patent US11567085B2, “Photo-cleavable surfactants” (Wisconsin Alumni Research Foundation, priority 2018, dated 2023)
